The other results are listed elsewhere or left out.

This experiment concerns the target T1, OsSMF1 (Oryza sativa, UniProt Q6ZLB0 1-436).
T1 sequence: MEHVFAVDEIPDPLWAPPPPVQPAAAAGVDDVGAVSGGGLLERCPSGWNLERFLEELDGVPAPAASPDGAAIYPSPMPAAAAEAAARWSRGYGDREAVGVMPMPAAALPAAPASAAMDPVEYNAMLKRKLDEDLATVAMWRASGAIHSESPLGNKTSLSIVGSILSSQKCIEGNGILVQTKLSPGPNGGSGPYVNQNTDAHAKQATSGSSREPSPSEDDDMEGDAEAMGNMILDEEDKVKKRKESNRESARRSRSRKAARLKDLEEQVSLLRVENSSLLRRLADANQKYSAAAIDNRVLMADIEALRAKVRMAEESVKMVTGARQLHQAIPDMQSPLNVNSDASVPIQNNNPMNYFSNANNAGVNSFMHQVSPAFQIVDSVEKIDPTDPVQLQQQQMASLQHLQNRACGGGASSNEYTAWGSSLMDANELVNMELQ
As to the kind of experiment: protein-binding microarray (RPBM); PBS, 2% BSA, 51.3 ng/ul salmon testes DNA, 50 uM zinc acetate, 200 nM TF, 25 C, 1 h; high values mean tight binding. The conditions noted are these: protein: recombinant; tags: N-terminal polyhistidine and DsRed monomer fusion (pET32a); chain copies: 2; label: CyDye5-dUTP incorporated in the synthesized complementary strand; 3' TTTTT single-stranded linker to array surface; dsDNA, one strand shown. The gist of the method:
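Binding signal here means per-feature fluorescence intensity in arbitrary units. The values were read on an Axon 4000B scanner after a custom Agilent array, double-stranded by primer extension with Cy5-dUTP, was incubated with 200 nM protein at 25 °C for 1 h in PBS with 2% BSA, salmon testes DNA and 50 µM zinc acetate, then washed. The proteins were transcription factors with an N-terminal polyhistidine tag and DsRed, expressed in E. coli BL21-CodonPlus and purified on Ni–NTA.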
Regarding “AGTCACGGTAGTTGCTTAACTGGAAAACTATAGGCCCGTACGGAGTCACCTAGTGCAG”, the binding signal was 3630 fluorescence intensity (a.u.).

Consider “ACGTGCTGTTGATGGTAACCGCACACGAGTGACGTGGAGACGGAGTCACCTAGTGCAG”, for which the binding signal was 15700 fluorescence intensity (a.u.). Then “TGCGTGATCACCTCCTTCATGCAAGGACCTCCGTAAAGTCCGGAGTCACCTAGTGCAG”, with 3630 fluorescence intensity (a.u.); and “AGTTCCTAATATTTCTCAATGTATATATGTACTCATTCCTCGGAGTCACCTAGTGCAG”, with 3800 fluorescence intensity (a.u.). The same measure for “TATTAGTTAAGTGTGATGCAGGATATATATGATATGCAGACGGAGTCACCTAGTGCAG”: 3210 fluorescence intensity (a.u.); for “CCGCGCTCTGCCTCCTTCCTCCCCACAACGGGGAATTTAACGGAGTCACCTAGTGCAG”: 19200 fluorescence intensity (a.u.). Then “CACACCTGGTGTTGAAATTAGGTTGGCACGTTTACATCATCGGAGTCACCTAGTGCAG”, with 3530 fluorescence intensity (a.u.).

As for “TCCCATTCGCCACTGACACGTGGGGCCCTTCATCGATAACCGGAGTCACCTAGTGCAG”, the binding signal is 6250 fluorescence intensity (a.u.). The same measure for “TCGGGATATTTATGAGCGCTGGTGGAGTGGCGTGGCGAGGCGGAGTCACCTAGTGCAG”: 3670 fluorescence intensity (a.u.); for “TGCTAATCTTCCAGCCACACACCTAGTCAGTCATCAAAGTCGGAGTCACCTAGTGCAG”: 3430 fluorescence intensity (a.u.); for “TAATGTCACCAAAGTGCCACATCCGCAGACCAAGTCAACACGGAGTCACCTAGTGCAG”: 3940 fluorescence intensity (a.u.). Then “ATTAAGCCCTCAATCGGCACAGGCGAGGAGTTCTCATCACCGGAGTCACCTAGTGCAG”, with 12000 fluorescence intensity (a.u.); and “CGTCAGAAGAAGACCAAAAGAAGAGAGAAACATAAGCACACGGAGTCACCTAGTGCAG”, with 33500 fluorescence intensity (a.u.); and “ATTGTTACATGTAATCAAGGGGTGATGGGCATATTCACAGCGGAGTCACCTAGTGCAG”, with 3400 fluorescence intensity (a.u.). The same measure for “AACAGACCACGGCGGACCATGCCACGCTACGCCGACACCGCGGAGTCACCTAGTGCAG”: 5660 fluorescence intensity (a.u.); for “ATGGGGATGTTCAGAGAAATGACATGGATTAACCCATAAACGGAGTCACCTAGTGCAG”: 3500 fluorescence intensity (a.u.). With “TACTATGACGTACTGATTCACATAGCCTGAATACGTATGCCGGAGTCACCTAGTGCAG”, the binding signal is 3940 fluorescence intensity (a.u.). The same measure for “AACCTCCCCACCTCACGCGTCTGCCACTCCGGCGAGATATCGGAGTCACCTAGTGCAG”: 3800 fluorescence intensity (a.u.); for “GCCGTCAGTGATGAGTCACCTGTGACGGGTCCTAACTCGCCGGAGTCACCTAGTGCAG”: 15200 fluorescence intensity (a.u.); for “GGCCGTCTGCCACGTCATTTTCGCCGCCCTCTCCCAGAGGCGGAGTCACCTAGTGCAG”: 16300 fluorescence intensity (a.u.). Then “TCCACACCGCCAGCATAAACCATTCCACCGTGACGTAATCCGGAGTCACCTAGTGCAG”, with 8820 fluorescence intensity (a.u.); and “ACAGCCCCTTTCGGGATCCTACGTGGCGCTGATGTGGCATCGGAGTCACCTAGTGCAG”, with 29600 fluorescence intensity (a.u.); and “CACATCTCTAAAAGGCCGGCCCGGTCAGGCCCATCTTCAACGGAGTCACCTAGTGCAG”, with 8250 fluorescence intensity (a.u.).

In the case of “GATTACAACGTTGTCGCCACGTGTGTCAGCTCATGTTAAACGGAGTCACCTAGTGCAG”, the binding signal is 13300 fluorescence intensity (a.u.).

On to “AGAGAAGGGGAGAAGAAAAGGGATTGGGCTGACAAGTGGGCGGAGTCACCTAGTGCAG”, for which the binding signal was 3570 fluorescence intensity (a.u.).

As to “TCTTTCATATTGTCCAAACAAGTCCTTTAAATTTGTCATGCGGAGTCACCTAGTGCAG”, the binding signal is 5730 fluorescence intensity (a.u.).

Regarding “CCCATCACCCTGCCACCTGCCGACGCTGGCTAGCCTCCTTCGGAGTCACCTAGTGCAG”, the binding signal was 4290 fluorescence intensity (a.u.).

Turning to “ACTGCGTCTTGCTCGACCGCTACGTCACCTTCCTCGACGACGGAGTCACCTAGTGCAG”, the binding signal is 9090 fluorescence intensity (a.u.). Then “GCTCACACACCTCACAACTCACAAGTCGAATACGTGTCTACGGAGTCACCTAGTGCAG”, with 7220 fluorescence intensity (a.u.). The same measure for “CCAAGATGTGGGCACGGTGCCCATGGGCTGTATGTTGCTTCGGAGTCACCTAGTGCAG”: 24600 fluorescence intensity (a.u.). Then “TTGCATTGCGTATCCAAAGTCCAGGAGACGTGGAATTTGTCGGAGTCACCTAGTGCAG”, with 3560 fluorescence intensity (a.u.); and “TCGCAGCAGTGAGTGTGGTTTTGCCATGATCGACGTGCCCCGGAGTCACCTAGTGCAG”, with 4730 fluorescence intensity (a.u.). Take “TCGCGACGACCTGTGCGTACTGCAGTGCGGCGTCACCTATCGGAGTCACCTAGTGCAG”: the binding signal was 4990 fluorescence intensity (a.u.). The same measure for “AGTGCATCTCGACCACGCATTTCATCAAACACCTGGCGTGCGGAGTCACCTAGTGCAG”: 4360 fluorescence intensity (a.u.); for “TTAGTATATCATCATAGAAGAAAATTCTACACTATGTGTACGGAGTCACCTAGTGCAG”: 3620 fluorescence intensity (a.u.); for “GCAGATGATCTGTATCCATTGTATACAAGTTGCGTCATTTCGGAGTCACCTAGTGCAG”: 5650 fluorescence intensity (a.u.). For “ATACTCTAGATAATAATTGCTAGTGGATGATGATGTGGCACGGAGTCACCTAGTGCAG”, the binding signal is 12400 fluorescence intensity (a.u.). Then “CACTGCCACGTCACAGGTCAGTAGAGTCGCCGTGGCCGTGCGGAGTCACCTAGTGCAG”, with 17600 fluorescence intensity (a.u.). The same measure for “ACTGGGCCGGTGCTGCTGACGTCACGCCGAGCTACTTACCCGGAGTCACCTAGTGCAG”: 21300 fluorescence intensity (a.u.); for “TATTACTTCCTCCGTTTTACAATGTAAGTCATTCTAGCATCGGAGTCACCTAGTGCAG”: 18800 fluorescence intensity (a.u.). Then “GGCTTGCGGCAGGCACCGAGGGCGTGGAATGCCAAGTTGGCGGAGTCACCTAGTGCAG”, with 3280 fluorescence intensity (a.u.); and “GCTCGCTGACTGCGCCGAGTTTTATTCCCTACCGCCGCTCCGGAGTCACCTAGTGCAG”, with 3360 fluorescence intensity (a.u.). On to “GCGCGCCCGCCCGAAACCGATCGATCGATCGATCAGGTGCCGGAGTCACCTAGTGCAG”, for which the binding signal was 4390 fluorescence intensity (a.u.).

Turning to “ACATGTGGAGGGAACAGGGCGTGGAATCAAGGGTCGGGATCGGAGTCACCTAGTGCAG”, the binding signal is 3300 fluorescence intensity (a.u.). Then “CATGATGATCGATCAGTGGCTGTCTGCGTCACAGTCACTACGGAGTCACCTAGTGCAG”, with 5370 fluorescence intensity (a.u.).

As to “TTTGAAAACGTTGTTTGAAGTTGTCATAATTTGAAATTCACGGAGTCACCTAGTGCAG”, the binding signal was 3250 fluorescence intensity (a.u.). The same measure for “TCCGCCCTGCCACCTGGCACCCGAATATTCCTTCCGCCCGCGGAGTCACCTAGTGCAG”: 6380 fluorescence intensity (a.u.); for “AACGATATATTTGTTTTCTTGCTAAGCACAAGAGCTGGGGCGGAGTCACCTAGTGCAG”: 3200 fluorescence intensity (a.u.). The same measure for “ATGGCCGGAGAGAGCAGCTGCTGTACTGATGACGCCAACTCGGAGTCACCTAGTGCAG”: 3550 fluorescence intensity (a.u.); for “CCACCATGGCATGCCACGTCAACACACAGAGTGGGTTGGACGGAGTCACCTAGTGCAG”: 17900 fluorescence intensity (a.u.). Then “AGGGTAATAACCCAGCCTGTGTTGTGTGTGTTGGTTTAGACGGAGTCACCTAGTGCAG”, with 3900 fluorescence intensity (a.u.).

As for “GTTACACCATCCACGCGGCAAGACAATCAAGCCAAATGTTCGGAGTCACCTAGTGCAG”, the binding signal was 6070 fluorescence intensity (a.u.). Then “CGTCGTCGTGTACCACGTCCTCCACCGCCGGCTTCCCGCGCGGAGTCACCTAGTGCAG”, with 6700 fluorescence intensity (a.u.). With “CGCGAAGCCCACACGACGCACGGCCCAACTGCGAACGCTCCGGAGTCACCTAGTGCAG”, the binding signal was 3140 fluorescence intensity (a.u.).
